Among the data in US4650661A (priority 1982, dated 1987) are crude mass values, retold here.

Non-standard residues stand in square brackets, D forms with d. Sta = CC(C)C[C@H](N)[C@@H](O)CC(=O)O

Data set [1] in a line: general procedure: Boc solid-phase peptide synthesis; Boc-His(π--Bom)--O--Resin. The note with it: whole synthesis, scale 0.2 mmol.
Data set [2] can be described thus: general procedure: Boc solid-phase peptide synthesis; Boc-Lys(Cl2 Z)--O--Resin. The settings on record: whole synthesis, scale 0.24 mmole.

H-HPFH[Sta]VIH-OH registered a crude mass in data set [1] of 126 mgs.
In the case of Sta-Lys peptide, the crude mass in data set [2] is recorded as 171.6 mgs.
